# Among all 400,000 compounds or so, about 13,000 (3.2%) were called active. The shares of active, inactive and inconclusive entries below differ from those in the screen. The call rests on the fitted dose curve; in most records, active means well fitted cell-killing curve with a large enough effect; inconclusive means small, poorly fitted or top-dose-only effect, or effect the other way; inactive means flat fitted curve, though single readings scatter. Where the call is inconclusive, the potency comes from a doubtful curve fit.
# Experiment: qHTS assay for MDR1-selective chemotherapeutics: Primary screen using the drug-selected MDR subline cells KB-V1; further: nearly all actives have a fitted effect of over 60% in size
# Details: KB-V1 MDR cells viability, CellTiter-Glo, 72 h; activity change, negative = cytotoxicity: at 46.1 µM (top of the series)
# Outline: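 Drug-selected KB-V1 cells, grown in DMEM lacking phenol red with 10% FBS, receive compound titrations; after three days at 37 degrees C, surviving cell ATP is quantified by CellTiter-Glo luminescence and responses normalized and curve-fitted.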
# On the % scale 0 is the no-effect control and ±100 the full control effect; potency means the concentration at half of the fitted maximal effect.
SMILES,"activity change, negative = cytotoxicity",Potency
O=[N+]([O-])c1ccc(N2CCN(C(=S)Nc3cccc(F)c3)CC2)cc1,inactive: 19.5%,
O=C(NCCc1ccc2c(c1)OCCO2)c1ccc(F)cc1,,active: 23.1 µM
CC(=O)N1CCN(C(=O)c2ccc(NS(=O)(=O)c3ccc4c(c3)OCCO4)cc2)CC1,,"inconclusive: 29.1 µM [rising, single point]"
NS(=O)(=O)c1ccc(CNC(=O)C(c2ccccc2)c2ccccc2)cc1,inactive: 22.3%,
COCCOc1ccc(C(F)(F)F)cc1NC(=O)Cc1ccc(S(=O)(=O)N2CCOCC2)s1,,"inconclusive: 20.6 µM [cytotoxic, single point]"
Cc1ccc(NC(=O)c2ccc3nc[nH]c3c2)cc1C,,"inconclusive: 6.51 µM [cytotoxic, partial curve]"
COc1ccccc1N1CCN(CCC(=O)Nc2ccc3c(c2)OCO3)CC1,,active: 20.6 µM
O=C(NCCc1ccccc1)c1ccc(CS(=O)(=O)Cc2ccc(F)cc2)o1,,"inconclusive: 5.8 µM [cytotoxic, full curve, poor fit]"
CCC(=O)Nc1c2c(nn1-c1cccc(Cl)c1)CSC2,,"inconclusive: 23.1 µM [rising, single point]"
CCCOc1ccc(C(=O)Nc2ccc(Cl)c(-c3nc4ncccc4o3)c2)cc1,inactive: 5.28%,
CC(C)CNC(=O)C1(C)CCCCCN1Cc1ccccc1-c1ccccc1 (stereo not given),,"inconclusive: 23.1 µM [cytotoxic, single point]"
O=[N+]([O-])c1cccc(C2=NCCS2)c1,,"inconclusive: 25.9 µM [rising, partial curve, poor fit]"
COC(=O)[C@@]12CCCCN1[C@H](c1ccc(-c3cccc(Cl)c3)cc1)[C@H]1C(=O)N(C)C(=O)[C@H]12,,"inconclusive: 25.9 µM [cytotoxic, single point]"
FC(F)(F)c1cccc(Oc2nc(-c3ccccc3)nnc2C(F)(F)F)c1,inactive: 18.3%,
CCOc1cc(C(=O)Nc2ccc([N+](=O)[O-])cn2)cc(OCC)c1OCC,,"inconclusive: 6.51 µM [cytotoxic, single point]"
Cc1ccc(F)cc1NC(=O)COC(=O)COc1ccc(C#N)cc1,inactive: 3.77%,
O=C(NC(=S)NC1CCS(=O)(=O)C1)c1ccccc1 (stereo not given),,"inconclusive: 20.6 µM [rising, partial curve, poor fit]"
Cc1cc(Nc2ccccc2)c2c([N+](=O)[O-])c(C)cc(C)c2n1,,active: 20.6 µM
CSc1ccc(CCNC(=O)CN2C(=O)c3cccnc3Oc3ccc(Cl)cc32)cc1,,"inconclusive: 25.9 µM [cytotoxic, partial curve, poor fit]"
Cc1ccc2c(CN3CCCCC3)cc(=O)oc2c1C,inactive: 18.3%,
COc1ccccc1N1CCN(CC(O)COc2c(OC)cccc2OC)CC1 (stereo not given),,"inconclusive: 23.1 µM [cytotoxic, single point]"
Cc1ccc(/C=C/C(=O)N2CCN(S(=O)(=O)c3ccc(C)c(C)c3)CC2)o1,,"inconclusive: 18.4 µM [cytotoxic, single point]"
CSc1nc2c(c(=O)[nH]c(=O)n2C)n1Cc1ccc(Cl)cc1,,"inconclusive: 29.1 µM [cytotoxic, single point]"
CCOC(=O)Cc1csc(NC(=O)Cc2ccc(Cl)cc2)n1,,"inconclusive: 0.184 µM [cytotoxic, full curve]"

SMILES,"activity change, negative = cytotoxicity",Potency
Cc1c(-c2nsc(NC(=O)c3cccc(Cl)c3)n2)nnn1-c1ccccc1C(F)(F)F,,"inconclusive: 20.6 µM [cytotoxic, single point]"
CC(C)N1CCc2c(sc(NC(=O)c3ccc(S(=O)(=O)N4CCc5ccccc54)cc3)c2C(N)=O)C1,,"inconclusive: 25.9 µM [cytotoxic, single point]"
COc1ccc(NC(=O)CC2C(=O)N(c3ccc(F)cc3)C(=S)N2NC(=O)c2ccc(Cl)cc2)cc1 (stereo not given),inconclusive: -59.7%,
O=C(CN1CCN(S(=O)(=O)c2ccccc2)CC1)Nc1ccccc1C(=O)NC1CC1,,active: 6.51 µM
COCCCNC(=O)CSc1nc2ccccc2c(=O)n1Cc1ccc2c(c1)OCO2,,"inconclusive: 6.51 µM [cytotoxic, partial curve]"
Cc1ccc(S(=O)(=O)Nc2ccc3c(c2)OCCO3)cc1,,active: 23.1 µM
C[C@H]1CNC(=O)c2c(C(=O)N3CCN(C(=O)OC(C)(C)C)CC3)ncn21,inactive: -4.77%,
CN1CCN(Cn2cc(/C=C/C(=O)c3ccccc3)c3ccccc32)CC1,,"inconclusive: 18.4 µM [cytotoxic, single point]"
CCCCn1c(NCc2cc(Cl)ccc2O)nc2ccccc21,,active: 13 µM
COc1ccc(NC(=O)CCN2CCN(S(=O)(=O)c3ccc(Cl)cc3)CC2)cc1,,"inconclusive: 8.2 µM [cytotoxic, partial curve]"
CN(Cc1ccccn1)Cc1cn(Cc2ccccc2)nc1-c1ccc2c(c1)OCO2,,"inconclusive: 1.84 µM [cytotoxic, full curve]"
O=C(NC1CCN(C(=S)NCc2ccco2)CC1)NC12CC3CC(CC(C3)C1)C2,,"inconclusive: 18.4 µM [cytotoxic, partial curve, poor fit]"
Cn1c(/C=C/c2ccc([N+](=O)[O-])o2)nc2ccccc2c1=O,,"inconclusive: 1.3 µM [cytotoxic, full curve, poor fit]"
O=C(c1ccc(CS(=O)Cc2ccc(Cl)cc2)o1)N1CCN(C2CCCCC2)CC1 (stereo not given),inactive: -18.9%,
O=S(=O)(c1ccc(Cl)cc1)N1CCCN(c2ccc(C(F)(F)F)cn2)CC1,,"inconclusive: 23.1 µM [cytotoxic, single point]"
COc1ccc(NC(=O)N2CCCC2C(=O)Nc2ccc(C)cc2C)cc1 (stereo not given),inactive: 0.692%,
O=C(/C=C/c1ccccc1Cl)c1ccc[nH]1,inactive: -22.5%,
COc1ccc(CNCCC(c2ccccc2)c2ccc3c(c2)OCO3)cc1 (stereo not given),,"inconclusive: 32.6 µM [cytotoxic, single point]"
Cc1cccc(N(C)S(=O)(=O)c2nnc(NC(=O)c3ccco3)s2)c1,,"inconclusive: 29.1 µM [rising, single point]"
COc1ccccc1NC(=O)NCc1cccn1Cc1ccccc1,inactive: 2.34%,
CC(C(=O)NN=C(c1ccccc1)c1ccccc1)N1CCCC1 (stereo not given),,"inconclusive: 18.4 µM [cytotoxic, partial curve, poor fit]"
CCCC1=Nc2cc(C(=O)NCCc3ccccc3)ccc2Sc2ccc(C)cc21,,"inconclusive: 6.51 µM [cytotoxic, full curve, poor fit]"
CC(C)Oc1ccc(CNC(=O)CC(c2ccccc2)c2cc(Cl)ccc2O)cc1 (stereo not given),,active: 23.1 µM
CCC(CC)C(=O)N(C)c1c(C)nc2c(OCC=C(C)C)cccn12,inactive: -6.13%,

# A few values from the list.
# activity change, negative = cytotoxicity, COc1ccc(NC(=O)CC2C(=O)N(c3ccc(F)cc3)C(=S)N2NC(=O)c2ccc(Cl)cc2)cc1 (stereo not given) reads inconclusive: -59.7%
# Potency, COCCCNC(=O)CSc1nc2ccccc2c(=O)n1Cc1ccc2c(c1)OCO2 reads inconclusive: 6.51 µM [cytotoxic, partial curve]
# Potency, CN(Cc1ccccn1)Cc1cn(Cc2ccccc2)nc1-c1ccc2c(c1)OCO2 reads inconclusive: 1.84 µM [cytotoxic, full curve]
# Potency, COc1ccc(CNCCC(c2ccccc2)c2ccc3c(c2)OCO3)cc1 (stereo not given) reads inconclusive: 32.6 µM [cytotoxic, single point]
# Potency, O=C(NC1CCN(C(=S)NCc2ccco2)CC1)NC12CC3CC(CC(C3)C1)C2 reads inconclusive: 18.4 µM [cytotoxic, partial curve, poor fit]

# The list continues:

SMILES,"activity change, negative = cytotoxicity",Potency
Cc1cc(=O)n2nc(N3CCC(C(=O)N4CCN(C)CC4)CC3)sc2n1,,"inconclusive: 29.1 µM [rising, single point]"
Cc1cc(C)c(OCC(=O)Nc2ccc(S(=O)(=O)N3CCOCC3)cc2)c(C)c1,inactive: 5.35%,
CC(=O)Nc1nc2c(F)cccc2s1,,"inconclusive: 18.4 µM [rising, single point]"
CC(C)c1ccc(OCC(=O)NNC(=S)NC(=O)c2cccs2)c(Br)c1,,"inconclusive: 9.2 µM [cytotoxic, partial curve]"
CCCCN(CC)C(=O)c1cc2cc3ccc(OC)cc3nc2o1,,"inconclusive: 5.8 µM [cytotoxic, full curve]"
CC(Oc1cccc(Br)c1)C(=O)NNC(=O)c1ccccn1 (stereo not given),,"inconclusive: 11.6 µM [cytotoxic, partial curve, poor fit]"
COc1ccc2c3c([nH]c2c1)C(C)N(C(C)=O)CC3 (stereo not given),,"inconclusive: 29.1 µM [cytotoxic, single point]"
CC(C)(CN1CCCN(CC(C)(C)C(=O)O)C1=O)C(=O)O,inactive: 16.1%,
CCOc1ccc(CCNC(=O)c2[nH]c(C)c(C(C)=O)c2C)cc1OCC,,active: 18.4 µM
CCc1ccccc1-n1ncc(C(=O)Nc2ccccc2OC)c1C,,"inconclusive: 9.2 µM [cytotoxic, partial curve]"
COC(=O)CN(C(=S)Nc1ccc(F)cc1)C1CC(=O)N(c2ccc(OC)cc2)C1=O (stereo not given),,"inconclusive: 1.84 µM [rising, partial curve, poor fit]"
OCc1ccccc1-c1cnc2cccnn12,inactive: 7.5%,
COc1ccc(NC(=O)Cn2cnc3ccc(S(=O)(=O)N4CCC(C)CC4)cc3c2=O)cc1OC,inactive: 0%,
CCOC(=O)C1=C(C)OC2(O)c3ccccc3C(=O)C12O (stereo not given),inactive: 26.2%,
Cn1c2ccccc2c(=O)c2c(=O)n(C3CCCCCC3)c(C3CCCCC3)nc21,,"inconclusive: 20.6 µM [cytotoxic, single point]"
COc1ccccc1-c1c(C)nn2c(N3CCCCCC3)cc(C)nc12,,"inconclusive: 18.4 µM [cytotoxic, partial curve, poor fit]"
CCCCSc1oc(-c2ccco2)nc1S(=O)(=O)c1ccccc1,,"inconclusive: 29.1 µM [cytotoxic, single point]"
CCC(CC)c1nnc(NC(=O)CCNC(=O)c2ccccc2Cl)s1,,"inconclusive: 29.1 µM [cytotoxic, single point]"
CC1(C(=O)NS(=O)(=O)c2ccc(C#N)cc2)CCN1C(=O)Cc1ccc(-c2ccccc2)cc1 (stereo not given),inactive: 8.04%,
CC(=O)c1cc(-c2ccccc2)n(CCC(=O)Nc2ccc(C)cc2C)c1C,inactive: 7.66%,
CCc1ccc(C(=O)Nc2ccc(OC)c(S(=O)(=O)N3CCOCC3)c2)cc1,,active: 9.2 µM
COc1ccccc1/C=C(/C(=O)OCC(=O)Nc1ccccc1C)c1ccccc1,,"inconclusive: 2.59 µM [cytotoxic, partial curve, poor fit]"

# Source: PubChem BioAssay AID1347076 (National Center for Advancing Translational Sciences (NCATS), 2019)
